Source: PubChem BioAssay AID1259254 (NCATS, 2017)
The deposit covers about 59,000 reagents; this is a part drawn at random. About 1,550 of all reagents (2.6%) count as active. 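G2 share is only a proxy for re-replication; each gene was hit by three separate siRNAs, and active genes were retested.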 Reagents against one gene are numbered here. Further read-outs or replicates are left out here. Not stated in the record: the amount of reagent.

Aim: 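Gene knock-downs that lead to re-replication, shown by excess G2 DNA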 (primary screen)
System: human HCT116 colorectal cancer cells
Reagents: single siRNA against human genes
Timing: 3 days
Measurement: 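Nuclei stained with Hoechst and imaged; cell-cycle phase assigned by DNA content; G2 share scaled per plate, non-targeting siRNA 0%, GMNN siRNA 100%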
Direction: G2 robust z-score: higher = more G2 cells, more excess DNA replication
Hit rule: 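An siRNA counts as active if its G2 robust z-score lies at least 5 MADs above the screen median; here such calls match roughly 38% of GMNN control or more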

gene	reagent	G2 robust z-score	Outcome
DCAF12 (DDB1 and CUL4 associated factor 12)	1	-0.567	inactive
DCAF12 (DDB1 and CUL4 associated factor 12)	2	-0.262	inactive
DCAF12 (DDB1 and CUL4 associated factor 12)	3	0.208	inactive
SLC35F5	1	-0.641	inactive
SLC35F5	2	-0.666	inactive
SLC35F5	3	-1.17	inactive
DNASE1L1 (deoxyribonuclease 1 like 1)	1	-0.652	inactive
DNASE1L1 (deoxyribonuclease 1 like 1)	2	0.393	inactive
DNASE1L1 (deoxyribonuclease 1 like 1)	3	-0.0215	inactive
CDK5R1 (cyclin dependent kinase 5 regulatory subunit 1)	1	8.33	active
CDK5R1 (cyclin dependent kinase 5 regulatory subunit 1)	2	1.99	inactive
CDK5R1 (cyclin dependent kinase 5 regulatory subunit 1)	3	1.11	inactive
DDX3X (DEAD-box helicase 3 X-linked)	1	-0.248	inactive
DDX3X (DEAD-box helicase 3 X-linked)	2	-0.0785	inactive
DDX3X (DEAD-box helicase 3 X-linked)	3	-0.779	inactive
CEACAM19 (CEA cell adhesion molecule 19)	1	-0.972	inactive
CEACAM19 (CEA cell adhesion molecule 19)	2	1.5	inactive
CEACAM19 (CEA cell adhesion molecule 19)	3	0.0254	inactive
OR10AD1 (olfactory receptor family 10 subfamily AD member 1)	1	0.736	inactive
OR10AD1 (olfactory receptor family 10 subfamily AD member 1)	2	1.82	inactive
OR10AD1 (olfactory receptor family 10 subfamily AD member 1)	3	0.252	inactive
VPS41 (VPS41 subunit of HOPS complex)	1	-0.382	inactive
VPS41 (VPS41 subunit of HOPS complex)	2	0.652	inactive
VPS41 (VPS41 subunit of HOPS complex)	3	-0.962	inactive
ZNF830 (zinc finger protein 830)	1	-0.747	inactive
ZNF830 (zinc finger protein 830)	2	0.68	inactive
ZNF830 (zinc finger protein 830)	3	0.899	inactive
KRT2 (keratin 2)	1	0.99	inactive
KRT2 (keratin 2)	2	0.347	inactive
KRT2 (keratin 2)	3	1.06	inactive
PRKAR1A	1	0.0416	inactive
PRKAR1A	2	-0.481	inactive
PRKAR1A	3	-1.47	inactive
HIVEP3 (HIVEP zinc finger 3)	1	0.258	inactive
HIVEP3 (HIVEP zinc finger 3)	2	1.43	inactive
HIVEP3 (HIVEP zinc finger 3)	3	-0.224	inactive
LCN1 (lipocalin 1)	1	-1.2	inactive
LCN1 (lipocalin 1)	2	-0.817	inactive
LCN1 (lipocalin 1)	3	-0.804	inactive
RAB35 (RAB35, member RAS oncogene family)	1	-0.278	inactive
RAB35 (RAB35, member RAS oncogene family)	2	1.28	inactive
RAB35 (RAB35, member RAS oncogene family)	3	0.0104	inactive
AGL (amylo-alpha-1,6-glucosidase and 4-alpha-glucanotransferase)	1	-0.784	inactive
AGL (amylo-alpha-1,6-glucosidase and 4-alpha-glucanotransferase)	2	-0.6	inactive
AGL (amylo-alpha-1,6-glucosidase and 4-alpha-glucanotransferase)	3	-1.02	inactive
FLJ40039 (retired record)	1	0.393	inactive
FLJ40039 (retired record)	2	3.77	inactive
FLJ40039 (retired record)	3	0.858	inactive
SMURF1 (SMAD specific E3 ubiquitin protein ligase 1)	1	-0.663	inactive
SMURF1 (SMAD specific E3 ubiquitin protein ligase 1)	2	1.65	inactive
SMURF1 (SMAD specific E3 ubiquitin protein ligase 1)	3	-0.196	inactive
ANKRD13C-DT (ANKRD13C divergent transcript)	1	0.684	inactive
ANKRD13C-DT (ANKRD13C divergent transcript)	2	-0.387	inactive
ANKRD13C-DT (ANKRD13C divergent transcript)	3	-0.382	inactive
CACNB3 (calcium voltage-gated channel auxiliary subunit beta 3)	1	0.198	inactive
CACNB3 (calcium voltage-gated channel auxiliary subunit beta 3)	2	0.791	inactive
CACNB3 (calcium voltage-gated channel auxiliary subunit beta 3)	3	-0.163	inactive
ANAPC11 (anaphase promoting complex subunit 11)	1	-0.557	inactive
ANAPC11 (anaphase promoting complex subunit 11)	2	-0.261	inactive
ANAPC11 (anaphase promoting complex subunit 11)	3	2.4	inactive
CFAP74 (cilia and flagella associated protein 74)	1	0.549	inactive
CFAP74 (cilia and flagella associated protein 74)	2	0.201	inactive
CFAP74 (cilia and flagella associated protein 74)	3	-0.12	inactive
CFAP74 (cilia and flagella associated protein 74)	4	-0.779	inactive
CFAP74 (cilia and flagella associated protein 74)	5	-0.376	inactive
CFAP74 (cilia and flagella associated protein 74)	6	-1	inactive
TGFBR1 (transforming growth factor beta receptor 1)	1	0.612	inactive
TGFBR1 (transforming growth factor beta receptor 1)	2	0.529	inactive
TGFBR1 (transforming growth factor beta receptor 1)	3	0.483	inactive

In a second layout: entries from further up
gene,reagent,G2 robust z-score,Outcome
FLJ40039 (retired record),2,3.77,inactive
FLJ40039 (retired record),3,0.858,inactive
SMURF1 (SMAD specific E3 ubiquitin protein ligase 1),1,-0.663,inactive
SMURF1 (SMAD specific E3 ubiquitin protein ligase 1),2,1.65,inactive
SMURF1 (SMAD specific E3 ubiquitin protein ligase 1),3,-0.196,inactive
ANKRD13C-DT (ANKRD13C divergent transcript),1,0.684,inactive
ANKRD13C-DT (ANKRD13C divergent transcript),2,-0.387,inactive
ANKRD13C-DT (ANKRD13C divergent transcript),3,-0.382,inactive
CACNB3 (calcium voltage-gated channel auxiliary subunit beta 3),1,0.198,inactive
